Source: patent US20100286372A1 (SCHERING, published 2010)
Results are given in words; binding and its absence hold for the method and conditions named. Some entries that bind do so weakly or less than the wild type. Where a sequence is shown, tags or fusion partners need not be part of it.

Target: T1, human PXR-LBD (pregnane X receptor ligand binding domain, residues 130-434) with N-terminal 6x His (human) (UniProt O75469)
T1 sequence: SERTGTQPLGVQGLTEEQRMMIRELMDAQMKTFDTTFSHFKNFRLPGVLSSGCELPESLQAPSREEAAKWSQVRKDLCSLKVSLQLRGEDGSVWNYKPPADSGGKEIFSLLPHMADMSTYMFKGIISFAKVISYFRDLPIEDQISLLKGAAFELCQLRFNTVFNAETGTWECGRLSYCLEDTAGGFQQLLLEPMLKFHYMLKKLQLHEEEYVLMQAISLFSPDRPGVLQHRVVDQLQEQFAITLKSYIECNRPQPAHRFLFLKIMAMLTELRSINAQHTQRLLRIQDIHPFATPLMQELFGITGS
Test: temperature-dependent circular dichroism (thermal denaturation)

binding: binds
B1: SRC-1 peptide (676-CPSSHSSLTERHKILHRLLQEGSPS-700) (peptide)
peptide: CPSSHSSLTERHKILHRLLQEGSPS
